# This is one part of the list. Many values rest on one well or one pass, so single values are uncertain.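 The apoptosis fraction was the count of cleaved-PARP antibody-stained nuclei relative to all DNA-stained nuclei, imaged in 1,536-well plates. Screening doses were set so most cells survived, and baseline and induced cleaved-PARP levels vary greatly across cell lines.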
# Columns and labels:
# Test in all cases: cleaved PARP positive nuclei fraction relative to DMSO control; melanoma cells; higher = more apoptosis
# Conditions in all cases: library dose: low library concentration; 72 h
# CBRC034 = test system: CBRC034 (line from a melanoma biopsy)
# COLO792 = test system: COLO792
# COLO800 = test system: COLO800
# COLO829 = test system: COLO829
# G361 = test system: G361
# IPC-298 = test system: IPC-298
# IST-MEL1 = test system: IST-MEL1
# LB2518-MEL = test system: LB2518-MEL
# LOXIMVI = test system: LOXIMVI
# MZ2-MEL = test system: MZ2-MEL
# MeWo = test system: MeWo
# RPMI7951 = test system: RPMI7951
# RVH-421 = test system: RVH-421
# SkMel28 = test system: SkMel28
# SkMel30 = test system: SkMel30
# SkMel5 = test system: SkMel5
# UACC257 = test system: UACC257
# UACC62 = test system: UACC62
Structure (SMILES),cleaved PARP positive nuclei fraction (CBRC034) [%],cleaved PARP positive nuclei fraction (COLO792) [%],cleaved PARP positive nuclei fraction (COLO800) [%],cleaved PARP positive nuclei fraction (COLO829) [%],cleaved PARP positive nuclei fraction (G361) [%],cleaved PARP positive nuclei fraction (IPC-298) [%],cleaved PARP positive nuclei fraction (IST-MEL1) [%],cleaved PARP positive nuclei fraction (LB2518-MEL) [%],cleaved PARP positive nuclei fraction (LOXIMVI) [%],cleaved PARP positive nuclei fraction (MZ2-MEL) [%],cleaved PARP positive nuclei fraction (MeWo) [%],cleaved PARP positive nuclei fraction (RPMI7951) [%],cleaved PARP positive nuclei fraction (RVH-421) [%],cleaved PARP positive nuclei fraction (SkMel28) [%],cleaved PARP positive nuclei fraction (SkMel30) [%],cleaved PARP positive nuclei fraction (SkMel5) [%],cleaved PARP positive nuclei fraction (UACC257) [%],cleaved PARP positive nuclei fraction (UACC62) [%]
"NC(=O)Nc1cc(-c2cccc(F)c2)sc1C(=O)N[C@H]1CCCNC1 + COc1cc(N2CCC(N3CCN(C)CC3)CC2)ccc1Nc1ncc(Cl)c(Nc2ccccc2S(=O)(=O)C(C)C)n1 [NVP-TAE684] (first compound 0.02 µM, partner dose 0.08 µM)",230,104,99.6,43.4,33.5,153,39.2,71.7,94.4,192,84.9,84.1,47.8,139,192,27.4,69.9,85.9
"Cc1cc(N2CCOCC2)cc2[nH]c(-c3c(NC[C@@H](O)c4cccc(Cl)c4)cc[nH]c3=O)nc12 + O=C(O)C(=O)Nc1sc2c(c1C(=O)O)CCNC2 [TCS401] (first compound 0.2 µM, partner dose 1.66667 µM)",172,64.2,196,107,60.3,94.3,83.3,84.2,45.9,137,53.7,122,13.7,179,134,29.9,125,125
"O=C(Nc1cccc(Cl)c1)Nc1ncc(CCNc2ncnc3ccsc23)s1 + COc1ccc2c(c1)CCC1C2CCC2(C)C(NCCCCCCN3C(=O)C=CC3=O)CCC12 [U73122] (first compound 0.0008 µM, partner dose 0.4 µM)",72,59.4,65.7,123,264,166,87.3,75.6,62.3,183,26.1,90,26.4,280,125,29.2,38.5,94.1
"C[C@]1(c2nc3c(C(N)=O)cccc3[nH]2)CCCN1 [Veliparib] + N#Cc1c(O)c2c(-c3ccc(-c4ccccc4O)cc3)csc2[nH]c1=O [A769662] (first compound 1.4 µM, partner dose 2 µM)",33.3,159,186,35.3,99.7,41.6,45,84.7,39.4,120,28.3,55.8,29,91.3,67.6,115,69.8,89.5
"C=CCn1c(=O)c2cnc(Nc3ccc(N4CCN(C)CC4)cc3)nc2n1-c1cccc(C(C)(C)O)n1 + O=C(Nc1ccccc1)c1cc([N+](=O)[O-])ccc1Cl [GW9662] (first compound 0.02 µM, partner dose 2 µM)",143,105,112,69.9,37.4,171,55.9,152,24.1,90.3,110,38.5,48.7,140,20.8,62.9,137,209
"Cn1nnc2c(C(N)=O)ncn2c1=O [temozolomide] + O=C1NC(=O)/C(=C/c2ccc(-c3ccc(F)cc3O)o2)S1 [AS252424] (first compound 2 µM, partner dose 1 µM)",53.7,108,82.4,134,130,368,61.6,363,135,102,48.8,46.5,39.4,91.1,110,34.6,122,138
"COCC[n+]1c2c(n(Cc3cnccn3)c1C)C(=O)c1ccccc1C2=O + COc1cc(N2CCC(N3CCN(C)CC3)CC2)ccc1Nc1ncc(Cl)c(Nc2ccccc2S(=O)(=O)C(C)C)n1 [NVP-TAE684] (first compound 0.0004 µM, partner dose 0.08 µM)",70.9,67.7,74.5,146,135,374,116,96.6,53.5,,193,134,113,87.5,340,86.6,146,53
"Cc1cc(N2CCOCC2)cc2[nH]c(-c3c(NC[C@@H](O)c4cccc(Cl)c4)cc[nH]c3=O)nc12 + Oc1nc(-c2ccc(C(F)(F)F)cc2)nc2c1CSCC2 [XAV939] (first compound 0.2 µM, partner dose 2 µM)",84.7,138,123,128,109,54.3,196,,66.9,,106,130,94.4,129,98.3,62.1,88.3,80.7
"Cc1nc(Nc2ncc(C(=O)Nc3c(C)cccc3Cl)s2)cc(N2CCN(CCO)CC2)n1 [dasatanib] + O=c1cc(-c2cccc3c2Sc2ccccc2S3)oc(N2CCOCC2)c1 [KU55933] (first compound 0.004 µM, partner dose 1 µM)",132,153,236,37.6,147,366,131,78.5,60.8,146,38.2,63.6,83.5,78.2,602,61.2,142,92.1

# — the supplement of paper PMC4604168 (melanoma cell lines)
